These results are taken from the supplement of paper PMC7024190.

Molecules are shown by their SMILES. Structures can show the parent of a compound that is named as a salt. This is one part of the list. Repeats in this data set agree poorly, so a single value says little.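 The cells were human embryonic kidney cells carrying a Renilla luciferase gene, driven by the HSV-TK promoter, on a plasmid put in briefly by transfection. This is the first-round screen of about ten thousand compounds, looking for ones that raise reporter output.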

For the assay, the system named is HEK 293FT. Kind of assay: log relative Renilla luciferase luminescence (reporter expression vs reference, reference not stated) (log (base not stated)); higher = higher recombinant reporter expression. The settings on record: 10 µM; time after transfection 48 h.
Consider `COc1c(CC(=O)c2cc3c(cc2O)OC(C)(C)C(O)C3)ccc2c1C=CC(C)(C)O2` (stereo unspecified) [dihydromunduletone], for which the log was -0.0702. For `O=C(O)c1cn(C2CC2)c2cc(N3CCNCC3)c(F)cc2c1=O` [ciprofloxacin] the value was 0.192; for `COc1ccc(/C=C/C(=O)c2ccc(O)cc2O)cc1` [2',4'-dihydroxy-4-methoxychalcone], 0.164.

On to `CCOc1nc2cccc(C(=O)OCc3oc(=O)oc3C)c2n1Cc1ccc(-c2ccccc2-c2noc(=O)[nH]2)cc1` [azilsartan kamedoxomil], for which the log is -0.0419. For `C#CCN[C@@H]1CCc2ccccc21` [rasagiline] the value was -0.108. For `Cn1c(=O)[nH]c2ncn(C)c2c1=O` [paraxanthine] the value was -0.104; for `Cc1cc(C(C)(C)C)c(O)c(C(C)(C)C)c1` [butylated hydroxytoluene], 0.0427; for `COc1ccc2c(c1)OCC(Cc1ccc(OC)c(O)c1)C2=O` (stereo unspecified) [deoxysappanone b 7,4'-dimethyl ether], 0.217.

Consider `C=CCSSSCC=C` [diallyl trisulfide], for which the log was -0.068. For `O=C(O)C1CC([C@@H]2CCCCN2)CN2CCCCC12` (stereo partly specified) [aphyllic acid] the value was 0.0522; for `COc1cc(C(=O)NCc2ccc(OCCN(C)C)cc2)cc(OC)c1OC` [trimethobenzamide hydrochloride], -0.0295.

As to `C[C@@H]1CC[C@H]2[C@](C)(CO)[C@@H](O)CC[C@]2(C)[C@@]12CC[C@@](CO)(CCO)O2` [lagochilin], the log was -0.0396. For `CCC/C=C\C=C/C(=O)N[C@@H](CC(N)=O)C(=O)NC(CC(N)=O)C(=O)N[C@@H](C(=O)N[C@H](CCCN)C(=O)N[C@@H](C(=O)N[C@@H](C(=O)N[C@@H](C(=O)N[C@H](C(=O)N[C@@H](Cc1ccccc1)C(=O)N[C@H](CCCN)C(=O)NC(C(=O)N[C@H](C(=O)NC(C(=O)NCC(=O)N[C@@H](CC(C)C)C(=O)N[C@H](C)C(=O)NC(C(=O)O)C1CCC(O)C(Cl)C1)C1CCC(O)CC1)[C@H](C)O)C1CCC(O)CC1)[C@H](C)O)C1CCC(O)CC1)C1CCC(O)CC1)[C@H](C)O)C1CCC(O)CC1` (stereo partly specified) [ramoplanin [a2 shown; 2mm]] the value was 0.0105.

Turning to `C1CCC(C(CC2CCCCN2)C2CCCCC2)CC1` (stereo unspecified) [perhexiline maleate], the log came out at 0.0746. Take `CN1CC(=O)N2[C@H](c3ccc4c(c3)OCO4)c3[nH]c4ccccc4c3C[C@@H]2C1=O` [tadalafil]: the log turned out to be 0.14. For `CC(=O)[C@@]1(O)CC[C@H]2[C@@H]3C[C@H](C)C4=CC(=O)C=C[C@]4(C)[C@@]3(F)[C@@H](O)C[C@@]21C` [fluorometholone] the value was 0.0637.
